# Measurements from the supplement of paper PMC9135407.
# “And” between values parts separate entries of the source, which are not always exact repeats. Identical values can stand only once. Counter-ions that a name gives are not always drawn. ± gives the standard deviation of the averaged measurements. The list shows a part of the results. Part of the spread comes from offsets between plates or batches.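 Primary human stellate myofibroblasts activated in culture; inactivation shown by regained lipid droplets. Readout: fraction of Hoechst-counted cells exceeding a per-plate Bodipy threshold, duplicate wells, each plate with DMSO negative and nortriptyline positive controls. Hits: control-normalized score beyond the plate's top-tenth-percentile nortriptyline wells, or among its three best wells. Final well concentrations unstated.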
# System: primary human hepatic stellate cells (donor 1)
# Test: percent Bodipy-positive cells; higher = more lipid droplet accumulation
# Details: 48 h
# [1] = library stock concentration: 3.33 mM
# [2] = library stock concentration: 10 mM
# [3] = library stock concentration: 1 mM
# [4] = library stock concentration: 80 uM
# [5] = library stock concentration: 400 uM
# [6] = library stock concentration: 2 mM
compound,measurement,setting,value
CCc1cc2c(s1)-n1c(C)nnc1CN=C2c1ccccc1Cl [Etizolam],percent Bodipy-positive cells,[1],16.4 ± 7%
same,percent Bodipy-positive cells,[2],36.2 ± 0.27%
C(=C\c1ccccc1)/CN1CCN(CCOC(c2ccccc2)c2ccccc2)CC1,percent Bodipy-positive cells,[2],32.3 ± 4.9%
"CCCC[N+]1(C)[C@@H]2C[C@@H](OC(=O)[C@H](CO)c3ccccc3)C[C@H]1[C@@H]1O[C@@H]12 (single isomer, unassigned; (-)) [(-)-Scopolamine,n-Butyl-, bromide]",percent Bodipy-positive cells,[2],14.6 ± 0.77%
COc1ccc(OC)c(C(O)C(C)N)c1 (configuration not stated) [Methoxamine hydrochloride],percent Bodipy-positive cells,,34 ± 16%
same,percent Bodipy-positive cells,library stock concentration: 8.1 mM,0.943 ± 0.29%
same,percent Bodipy-positive cells,[2],7.8% and 27%
Ic1cncc(OC[C@@H]2CCN2)c1,percent Bodipy-positive cells,[2],8.66 ± 2.7%
CC([C@H](O)c1ccccc1)N(C)C (some centres not stated),percent Bodipy-positive cells,[2],51.8 ± 6.6%
CCOc1cncc(/C=C/CCNC)c1 [TC 2559 difumarate],percent Bodipy-positive cells,[2],8.85 ± 4.2%
CCC(=O)O[C@H]1CC[C@H]2[C@@H]3CCC4=CC(=O)CC[C@]4(C)[C@H]3CC[C@]12C [Testosterone propionate],percent Bodipy-positive cells,,29.7 ± 17%
same,percent Bodipy-positive cells,library stock concentration: 5.8 mM,37 ± 4.6%
same,percent Bodipy-positive cells,[2],63.4 ± 8.3%
"C=CCN1CC[C@]2(C)c3cc(O)ccc3C[C@H]1C2C (single isomer, unassigned; (+))",percent Bodipy-positive cells,[2],10.8 ± 2%
CN1C2CC(=O)CC1C(O)C2 (configuration not stated) [6-Hydroxytropinone],percent Bodipy-positive cells,,7.87 ± 6.4%
C[C@@H]1CC[C@]2(NC1)O[C@H]1C[C@H]3[C@@H]4CC=C5C[C@@H](O)CC[C@]5(C)[C@H]4CC[C@]3(C)[C@H]1[C@@H]2C [Solasodine],percent Bodipy-positive cells,,7.93 ± 4.1%
same,percent Bodipy-positive cells,[2],37.7 ± 5.4%
CCCCC/C=C\C/C=C\C/C=C\C/C=C\CCCC(=O)NCCc1ccc(O)c(O)c1 [N-Arachidonoyl Dopamine],percent Bodipy-positive cells,[3],7.47 ± 1.6%
"COC(=O)[C@]1(O)C[C@@H]2O[C@@]1(C)n1c3ccccc3c3c4c(c5c6ccccc6n2c5c31)C(=O)NC4 [K-252a, Nocardiopsis sp.]",percent Bodipy-positive cells,[1],75.1 ± 20%
Cc1sc2c(c1C)C(c1ccc(Cl)cc1)=N[C@@H](CC(=O)OC(C)(C)C)c1nnc(C)n1-2,percent Bodipy-positive cells,[4],42 ± 4.9%
same,percent Bodipy-positive cells,[5],49.81 ± 0.26%
same,percent Bodipy-positive cells,[6],48.8 ± 5.5%
same,percent Bodipy-positive cells,[1],44.3 ± 9.6%
same,percent Bodipy-positive cells,[2],36.9% and 59.8%
O=c1c2ccccc2[se]n1-c1ccccc1 [Ebselen],percent Bodipy-positive cells,library stock concentration: 18.2 mM,100%
Cl[C@H]1[C@H](Cl)[C@@H](Cl)[C@@H](Cl)[C@H](Cl)[C@H]1Cl [Lindane],percent Bodipy-positive cells,library stock concentration: 6.9 mM,3.06 ± 1.2%
same,percent Bodipy-positive cells,[2],36.4 ± 14%
Cc1ccc2c(c1)C1(CCN(CCc3nc(-c4ccccc4)oc3C)CC1)OC(=O)N2,percent Bodipy-positive cells,[2],23.8 ± 3.4%
CCCCC/C=C\C/C=C\C/C=C\C/C=C\CCCC(=O)NCC(=O)O [Arachidonoyl Glycine],percent Bodipy-positive cells,[3],14.4 ± 4.2%
CCCCC/C=C\C/C=C\C/C=C\C/C=C\CCCC(=O)NCC(=O)O [N-arachidonoylglycine],percent Bodipy-positive cells,[3],11.6 ± 10%
Oc1ccc(Cl)cc1Cc1cc(Cl)ccc1O [Dichlorophene],percent Bodipy-positive cells,[2],25 ± 4.4%
CC(O)CN1CCN(CC(=O)[O-])CCN(CC(=O)[O-])CCN(CC(=O)[O-])CC1.[Gd+3] (configuration not stated),percent Bodipy-positive cells,[2],39.4 ± 7%
"COc1ccc(CC2c3cc(OC)c(OC)cc3CCN2C)cc1OC (racemic) [Laudanosine (R,S)]",percent Bodipy-positive cells,,32 ± 2.7%
C/C(O)=C(\C#N)C(=O)Nc1cc(Br)ccc1Br,percent Bodipy-positive cells,[2],6.94 ± 0.71%
Cc1ccccc1-n1c(Cn2ncc3c(N)ncnc32)nc2cccc(C)c2c1=O,percent Bodipy-positive cells,[1],7.95 ± 4.3%
same,percent Bodipy-positive cells,[2],11.5 ± 0.9%
O=C1C=C2C(=CCOC2O)O1 (configuration not stated) [Patulin],percent Bodipy-positive cells,[2],96.3 ± 1.5%
CCC1(C)CC(=O)NC(=O)C1 [Bemegride],percent Bodipy-positive cells,,6.09 ± 2.5%
same,percent Bodipy-positive cells,[1],6.42 ± 2.2%
same,percent Bodipy-positive cells,[2],21.2 ± 5.3%
C[C@@]12C(=O)OC(=O)[C@]1(C)[C@H]1CC[C@@H]2O1 [Cantharidin],percent Bodipy-positive cells,,100%
same,percent Bodipy-positive cells,[2],100% and 98.7%
same,percent Bodipy-positive cells,library stock concentration: 25.5 mM,98.5 ± 2.1%
COC(C)(C)CCC[C@H](C)C/C=C/C(C)=C/C(=O)OC(C)C [Methoprene (s)],percent Bodipy-positive cells,[2],37.4 ± 2.8%
CCCCC/C=C\C/C=C\C/C=C\C/C=C\CCCC(=O)NC1CC1 [Arachidonoyl Cyclopropylamide],percent Bodipy-positive cells,[3],10.4 ± 3.3%
CCCC(C)(COC(N)=O)COC(=O)NC(C)C (configuration not stated) [Carisoprodol],percent Bodipy-positive cells,,43.3 ± 15%
same,percent Bodipy-positive cells,library stock concentration: 7.7 mM,2.66 ± 2.1%
same,percent Bodipy-positive cells,[2],8.85 ± 1.4%
C#CC(C)(O)CC (configuration not stated),percent Bodipy-positive cells,[2],33.1 ± 9.4%
O=C1C=C2C(C(C)=C1O)=CC=C3[C@]2(CCC4([C@@H]5C[C@@](CC[C@@]5(CC[C@]34C)C)([C@@](O)=O)C)C)C (some centres not stated) [Celastrol],percent Bodipy-positive cells,[6],98.83 ± 0.14%
same,percent Bodipy-positive cells,[2],97.3 ± 1.2%
CN1C2CCC1CC(O)C2 (configuration not stated) [Tropine],percent Bodipy-positive cells,,10.9 ± 3%
COc1cc(OC)c(OC)cc1C=O [Asarylaldehyde],percent Bodipy-positive cells,[2],26.4 ± 4%
COc1cc(OC)c(OC)cc1C=O [Asaraldehyde],percent Bodipy-positive cells,[1],9.48 ± 0.49%
same,percent Bodipy-positive cells,[2],8.84 ± 0.92%
C[N+]1(C)CCCC(OC(=O)C(O)(c2ccccc2)c2ccccc2)C1 (configuration not stated) [Mepenzolate bromide],percent Bodipy-positive cells,,8.69 ± 0.82%
same,percent Bodipy-positive cells,library stock concentration: 4.8 mM,3.23 ± 0.55%
same,percent Bodipy-positive cells,[2],11 ± 1.3%
C[N+]1(C)CCCC(OC(=O)C(O)(c2ccccc2)c2ccccc2)C1 (configuration not stated) [Cantil],percent Bodipy-positive cells,[2],29.1 ± 2.5%
COc1cc(N)c(Cl)cc1C(=O)NC1CN2CCC1CC2 (configuration not stated) [Zacopride],percent Bodipy-positive cells,[2],19 ± 9.5%
COc1cc(N)c(Cl)cc1C(=O)NC1CN2CCC1CC2 (configuration not stated) [Zacopride hydrochloride],percent Bodipy-positive cells,[2],9.55 ± 2.8%
Cc1sc2c(c1C)C(c1ccc(Cl)cc1)=NC(CC(N)=O)c1nnc(C)n1-2 (configuration not stated),percent Bodipy-positive cells,[1],45.2 ± 5.2%
same,percent Bodipy-positive cells,[2],49.7 ± 3.6%
OC(c1ccccc1)(c1ccccc1)C1CCNCC1 [Azacyclonol],percent Bodipy-positive cells,,65.5 ± 10%
same,percent Bodipy-positive cells,[1],12 ± 3.8%
same,percent Bodipy-positive cells,[2],74.4 ± 15%
N[C@@H]1C[C@H]1c1ccccc1.N[C@H]1C[C@@H]1c1ccccc1 [Tranylcypromine sulfate],percent Bodipy-positive cells,library stock concentration: 8.6 mM,12.8 ± 2.5%
same,percent Bodipy-positive cells,[2],24.4 ± 7%
N[C@@H]1C[C@H]1c1ccccc1.N[C@H]1C[C@@H]1c1ccccc1 [Tranylcypromine],percent Bodipy-positive cells,[4],34 ± 2.2%
same,percent Bodipy-positive cells,[5],37.52 ± 0.14%
same,percent Bodipy-positive cells,[6],44.7 ± 1.6%
same,percent Bodipy-positive cells,[2],42.17 ± 0.14%
same,percent Bodipy-positive cells,library stock concentration: 15 mM,10.5 ± 0.96%
"NC1CCc2cc(O)c(O)cc2C1 (configuration not stated) [6,7-ADTN hydrobromide]",percent Bodipy-positive cells,[2],37.2 ± 16%
NC1CCc2cc(O)c(O)cc2C1 (configuration not stated),percent Bodipy-positive cells,library stock concentration: 27.9 mM,21.2 ± 4.5%
COc1ccc2[nH]cc(C3=CCNCC3)c2c1.COc1ccc2[nH]cc(C3=CCNCC3)c2c1.O=C(O)CCC(=O)O,percent Bodipy-positive cells,[2],96.1 ± 2.5%
COc1ccc(CNC(=O)/C=C/c2ccc3[nH]cc(CCN(C)C)c3c2)cc1,percent Bodipy-positive cells,[2],95.2 ± 0.93%
